This passage reports AC50 results from PubChem BioAssay AID1487 (National Center for Advancing Translational Sciences (NCATS), 2009).

A short description of this test: qHTS Assay for Modulators of Lamin A Splicing. The note with it: HeLa LMNA splicing GFP/RFP minigene ratio, 48 h. In a few lines: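 S3 HeLa stable clones carrying a lamin A-EGFP splicing minigene plus DsRed2 were seeded at 600 cells/well in Opti-MEM with 2% FBS, pin-dosed and incubated 48 h at 37°C. Acumen cytometry (488 nm) gave the GFP/RFP total-intensity ratio.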

[1] abbreviates: measured here: RFP viability control channel.
[2] abbreviates: measured here: GFP splicing reporter channel.

The other results are listed elsewhere or left out. These are further read-outs of the screen, such as a control signal, another cell line or another target. No call is given for them. Most of these compounds were active or inconclusive in the main read-out, so they are no random draw. Words in brackets tell the shape of the fitted curve; partial curves, single points and poor fits give uncertain potencies.

By AC50 is commonly meant the concentration giving half of the maximal activity seen. For `CNC(=O)c1cnc2sc(N3CCCCCC3)nn2c1=O`, the AC50 under setting [1] was 0.02 µM [falling, full curve, poor fit].

Consider `CC(C)c1ccccc1NC(=S)N1CCN(Cc2ccc3c(c2)OCO3)CC1`, for which the AC50 under setting [1] was 17.8 µM [rising, partial curve, poor fit].

As for `On1onc2c3cc(-c4ccccc4)nc3ccc21`, the AC50 runs as follows: under setting [2], 7.08 µM [falling, partial curve]; under setting [1], 5.01 µM [falling, full curve].

In the case of `Cn1c(/C=C/c2cccc([N+](=O)[O-])c2)nc2ccccc2c1=O`, the AC50 under setting [2] was 0.01 µM [falling, full curve, poor fit].

On to `O=C(CCN1CCC(c2ccccc2)C1)c1ccccc1` (configuration not stated), for which the AC50 by setting is: under setting [2], 35.5 µM [falling, single point]; under setting [1], 17.8 µM [falling, single point].

In the case of `COc1ccccc1C(CCNS(=O)(=O)c1ccc(C)cc1)c1ccco1` (configuration not stated), the AC50 under setting [1] is 11.2 µM [rising, partial curve, poor fit].

As to `Cc1ccc2cc(CN(C(=O)c3ccco3)c3ccccc3C)c(=O)[nH]c2c1`, under setting [1], the AC50 is 20 µM [rising, single point].

Turning to `CCc1ccccc1NC1Nc2cc(C)nn2S1` (configuration not stated), the AC50 under setting [1] is 0.501 µM [falling, full curve].

As for `Cc1nn(Cc2ccc(Cl)cc2)c(C)c1NC(=O)c1cc(-c2ccc3c(c2)OCO3)on1`, the AC50 by setting is: under setting [2], 10 µM [rising, partial curve, poor fit]; under setting [1], 10 µM [rising, partial curve].

`CCOc1ccccc1N(C)C(=O)c1c2c(nc3ccccc13)C(=O)N(C1CCCCC1)C2`: under setting [1], the AC50 was 31.6 µM [falling, partial curve, poor fit].

On to `CCOC(=O)c1cc2sccc2n1CC(=O)N1CCc2ccccc21`, for which, under setting [1], the AC50 is 5.62 µM [rising, partial curve, poor fit].

As for `COc1ccccc1NC(=O)CN(c1ccc(C)cc1)S(=O)(=O)c1c(C)n[nH]c1C`, the AC50 under setting [1] is 0.398 µM [rising, full curve, poor fit].

Turning to `CSc1ccccc1C(=O)NCc1ccc(F)cc1`, the AC50 under setting [1] was 0.00501 µM [falling, full curve, poor fit].

Consider `c1ccc2c(Nc3nc(N4CCOCC4)c4ccccc4n3)cccc2c1`, for which the half-maximal activity concentration (AC50) under setting [2] was 11.2 µM [rising, partial curve, poor fit] and the AC50 under setting [1] was 22.4 µM [rising, partial curve].

Turning to `COc1cc(/C=N/NC(=O)c2ccc(-c3ccccc3)cc2)cc(OC)c1OC`, the AC50 under setting [1] is 15.8 µM [rising, single point].

On to `CCn1cc([N+](=O)[O-])c(C(=O)N2N=C(c3ccc4ccccc4c3)CC2c2ccccc2O)n1` (configuration not stated), for which the AC50 runs as follows: under setting [2], 10 µM [rising, partial curve]; under setting [1], 15.8 µM [rising, partial curve].

Regarding `O=C(Nc1nc(-c2ccccc2)cs1)c1cccs1`, the AC50 under setting [2] was 10 µM [rising, single point].

For the compound `COc1ccc(-c2noc(C)c2-c2ccc3ccccc3n2)c(O)c1`, the AC50 was 2.24 µM [rising, full curve] under setting [2] and 11.2 µM [rising, partial curve] under setting [1].

On to `CC(=O)Oc1c(C)cc(Cl)cc1C(=O)Nc1ccc([N+](=O)[O-])cc1Cl`, for which the AC50 by setting is: under setting [2], 0.158 µM [rising, full curve, poor fit]; under setting [1], 0.251 µM [rising, full curve].

Turning to `Cc1nn(-c2ccc(F)cc2)c2sc(C(=O)O)cc12`, the AC50 under setting [1] was 35.5 µM [rising, single point].

With `COc1ccccc1NC(=O)c1ccc(NS(=O)(=O)c2ccc(F)c(Cl)c2)cc1`, the concentration at half-maximal activity (AC50) under setting [1] is 35.5 µM [rising, single point].

On to `Cc1ccc(N2C(=O)N(CC(=O)c3cc(C)ccc3C)C(=O)C2C)cc1` (configuration not stated), for which the AC50 under setting [1] was 6.31 µM [rising, partial curve].

Consider `CCOCCCNS(=O)(=O)c1ccc(NC(=O)c2ccccc2)cc1`, for which the AC50 reads like this: under setting [2], 0.2 µM [rising, partial curve]; under setting [1], 11.2 µM [rising, partial curve].

Consider `CCOC(=O)N1CCN(CC(=O)Nc2ccc(Oc3ccccc3)cc2)CC1`, for which the AC50 under setting [1] was 17.8 µM [rising, single point].

Take `CCOc1cc(C(=O)OCC(=O)NC(C)c2ccccc2)ccc1OCC(=O)N1CCOCC1` (configuration not stated): the AC50 under setting [1] was 0.00316 µM [rising, full curve, poor fit].

For the compound `C=CCc1ccc(OCC(O)CN2CCN(Cc3ccc(Cl)cc3)CC2)c(OC)c1` (configuration not stated), the AC50 is 11.2 µM [rising, partial curve] under setting [2] and 35.5 µM [rising, single point] under setting [1].

Regarding `COC(=O)[C@@H]1CC[C@H](C)[C@@H](c2ccc(C)cc2)N1C(=O)c1ccc(/C=N/O[C@@H](C)c2cn([C@H](CO)Cc3ccccc3)nn2)cc1`, the AC50 is 2.51 µM [falling, partial curve] under setting [2] and 35.5 µM [rising, single point] under setting [1].

Consider `COc1ccccc1C(=O)Nc1nnn(C)n1`, for which the AC50 under setting [2] was 5.62 µM [falling, single point].

For the compound `Cc1cc(C)n(-c2nc(SCCN(C)C)c3c4c(sc3n2)CCCC4)n1`, the AC50 under setting [2] is 35.5 µM [falling, single point].

Regarding `O=C(CCCOc1ccc(Cl)cc1Cl)NCCCn1ccnc1`, the AC50 under setting [1] is 31.6 µM [rising, single point].

`COc1ccc(Cl)cc1NC(=S)NCc1ccc(S(N)(=O)=O)cc1`: under setting [1], the AC50 is 0.631 µM [rising, full curve, poor fit].

`CO/N=C/c1ccc(N2CCCC2)c([N+](=O)[O-])c1`: the AC50 under setting [1] was 0.0224 µM [falling, full curve, poor fit].

As to `CCCNC(=O)CN1CCN(c2ccc(NC(=O)c3ccc(OC)cc3)cc2C(=O)O)CC1`, the AC50 was 0.0398 µM [falling, full curve, poor fit] under setting [2] and 0.0891 µM [falling, full curve, poor fit] under setting [1].

As for `Cc1onc(-c2c(F)cccc2Cl)c1C(=O)NCCc1ccc(S(N)(=O)=O)cc1`, the AC50 under setting [2] was 0.891 µM [rising, full curve, poor fit].

In the case of `O=C(CSCc1ccc(Cl)cc1)N/N=C/c1ccco1`, the AC50 reads like this: under setting [2], 25.1 µM [rising, partial curve, poor fit]; under setting [1], 35.5 µM [rising, partial curve, poor fit].
